This is an account of results in article PMC3174242.

Sequences of proteins named here, by UniProt entry; tags and fusion partners are left off. A change or cut given only in a name is not applied to a line headed by its entry.
UniProt P46462: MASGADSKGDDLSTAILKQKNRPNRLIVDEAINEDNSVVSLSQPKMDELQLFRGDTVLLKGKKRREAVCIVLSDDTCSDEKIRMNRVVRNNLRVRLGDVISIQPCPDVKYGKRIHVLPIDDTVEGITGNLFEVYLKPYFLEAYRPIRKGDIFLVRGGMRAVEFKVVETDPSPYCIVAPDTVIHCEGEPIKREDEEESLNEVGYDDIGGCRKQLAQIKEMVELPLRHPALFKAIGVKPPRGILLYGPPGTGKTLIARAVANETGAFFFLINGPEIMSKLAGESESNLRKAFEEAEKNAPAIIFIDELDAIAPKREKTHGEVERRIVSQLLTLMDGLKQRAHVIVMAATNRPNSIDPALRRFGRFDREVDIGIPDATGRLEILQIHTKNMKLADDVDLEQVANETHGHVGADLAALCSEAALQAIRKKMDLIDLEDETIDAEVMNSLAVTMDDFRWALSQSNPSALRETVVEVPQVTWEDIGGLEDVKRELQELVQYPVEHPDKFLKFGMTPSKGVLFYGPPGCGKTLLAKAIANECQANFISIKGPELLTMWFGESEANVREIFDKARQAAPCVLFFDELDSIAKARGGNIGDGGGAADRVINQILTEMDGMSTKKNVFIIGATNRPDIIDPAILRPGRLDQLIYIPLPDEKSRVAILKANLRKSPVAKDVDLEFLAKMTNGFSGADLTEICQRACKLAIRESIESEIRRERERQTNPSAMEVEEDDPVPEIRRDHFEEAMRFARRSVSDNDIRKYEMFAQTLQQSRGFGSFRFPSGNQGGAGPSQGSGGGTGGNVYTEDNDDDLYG
UniProt A0ABK0M5C8: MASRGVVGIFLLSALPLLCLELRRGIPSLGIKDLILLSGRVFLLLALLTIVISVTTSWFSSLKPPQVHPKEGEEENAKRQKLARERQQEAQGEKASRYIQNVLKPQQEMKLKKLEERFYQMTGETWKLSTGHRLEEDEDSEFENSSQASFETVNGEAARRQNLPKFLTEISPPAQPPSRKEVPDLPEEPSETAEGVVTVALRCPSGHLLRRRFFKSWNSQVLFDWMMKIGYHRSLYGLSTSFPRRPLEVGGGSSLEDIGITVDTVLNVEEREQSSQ

The target in one test is T1, GST-tagged Rep8 (human) (UniProt O00124).
T1 sequence: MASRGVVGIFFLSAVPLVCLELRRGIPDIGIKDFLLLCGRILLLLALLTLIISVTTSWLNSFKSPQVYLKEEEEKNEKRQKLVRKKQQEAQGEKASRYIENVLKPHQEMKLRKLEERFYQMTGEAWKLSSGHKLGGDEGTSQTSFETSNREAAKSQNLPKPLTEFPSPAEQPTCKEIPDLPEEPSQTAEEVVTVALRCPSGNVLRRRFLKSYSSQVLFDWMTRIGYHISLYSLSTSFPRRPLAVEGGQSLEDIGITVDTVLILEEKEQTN
The experiment in a line: pull-down; GST or GST fusion proteins immobilised on glutathione Sepharose beads; purified p97 (from red blood cells, or 6His-tagged p97 and truncations), about 3 ug p97 per reaction, buffer A, 4°C, 4 h; bound proteins by SDS-PAGE and blotting; both purified.

Test [1] addresses endogenous p97 (rat testis) (rat (endogenous in testis)) (UniProt P46462). Put plainly: co-IP; endogenous p97 immunoprecipitated from rat testis homogenate; blot with antibodies to p97 and Rep8.

Results are given in words; binding and its absence hold for the method and conditions named. Binding can be weak; no strength is given. For some assays here: Sequences can lack the tags named with a protein. For some assays here: Binding seen in cells or lysates may run through a third protein.

As to “6His-tagged p97 N-domain (p97 truncation) (from UniProt Q01853) (domain or fragment)”, the binding entry in the test with GST-tagged Rep8 (human) is “binds”.
Consider “endogenous Rep8 (rat testis) (from UniProt A0ABK0M5C8)”, for which the binding entry in test [1] is reported as “binds”.
